Test results from article PMC6814788.
These are yes or no findings as the source states them, for the method shown. Binding seen in cells or lysates may run through a third protein. These calls come from enrichment with a bait or labelling near it, and not all partners need be listed.

Protein sequences, listed by entry. Tags and fused reporters are not part of them.
UniProt P49792: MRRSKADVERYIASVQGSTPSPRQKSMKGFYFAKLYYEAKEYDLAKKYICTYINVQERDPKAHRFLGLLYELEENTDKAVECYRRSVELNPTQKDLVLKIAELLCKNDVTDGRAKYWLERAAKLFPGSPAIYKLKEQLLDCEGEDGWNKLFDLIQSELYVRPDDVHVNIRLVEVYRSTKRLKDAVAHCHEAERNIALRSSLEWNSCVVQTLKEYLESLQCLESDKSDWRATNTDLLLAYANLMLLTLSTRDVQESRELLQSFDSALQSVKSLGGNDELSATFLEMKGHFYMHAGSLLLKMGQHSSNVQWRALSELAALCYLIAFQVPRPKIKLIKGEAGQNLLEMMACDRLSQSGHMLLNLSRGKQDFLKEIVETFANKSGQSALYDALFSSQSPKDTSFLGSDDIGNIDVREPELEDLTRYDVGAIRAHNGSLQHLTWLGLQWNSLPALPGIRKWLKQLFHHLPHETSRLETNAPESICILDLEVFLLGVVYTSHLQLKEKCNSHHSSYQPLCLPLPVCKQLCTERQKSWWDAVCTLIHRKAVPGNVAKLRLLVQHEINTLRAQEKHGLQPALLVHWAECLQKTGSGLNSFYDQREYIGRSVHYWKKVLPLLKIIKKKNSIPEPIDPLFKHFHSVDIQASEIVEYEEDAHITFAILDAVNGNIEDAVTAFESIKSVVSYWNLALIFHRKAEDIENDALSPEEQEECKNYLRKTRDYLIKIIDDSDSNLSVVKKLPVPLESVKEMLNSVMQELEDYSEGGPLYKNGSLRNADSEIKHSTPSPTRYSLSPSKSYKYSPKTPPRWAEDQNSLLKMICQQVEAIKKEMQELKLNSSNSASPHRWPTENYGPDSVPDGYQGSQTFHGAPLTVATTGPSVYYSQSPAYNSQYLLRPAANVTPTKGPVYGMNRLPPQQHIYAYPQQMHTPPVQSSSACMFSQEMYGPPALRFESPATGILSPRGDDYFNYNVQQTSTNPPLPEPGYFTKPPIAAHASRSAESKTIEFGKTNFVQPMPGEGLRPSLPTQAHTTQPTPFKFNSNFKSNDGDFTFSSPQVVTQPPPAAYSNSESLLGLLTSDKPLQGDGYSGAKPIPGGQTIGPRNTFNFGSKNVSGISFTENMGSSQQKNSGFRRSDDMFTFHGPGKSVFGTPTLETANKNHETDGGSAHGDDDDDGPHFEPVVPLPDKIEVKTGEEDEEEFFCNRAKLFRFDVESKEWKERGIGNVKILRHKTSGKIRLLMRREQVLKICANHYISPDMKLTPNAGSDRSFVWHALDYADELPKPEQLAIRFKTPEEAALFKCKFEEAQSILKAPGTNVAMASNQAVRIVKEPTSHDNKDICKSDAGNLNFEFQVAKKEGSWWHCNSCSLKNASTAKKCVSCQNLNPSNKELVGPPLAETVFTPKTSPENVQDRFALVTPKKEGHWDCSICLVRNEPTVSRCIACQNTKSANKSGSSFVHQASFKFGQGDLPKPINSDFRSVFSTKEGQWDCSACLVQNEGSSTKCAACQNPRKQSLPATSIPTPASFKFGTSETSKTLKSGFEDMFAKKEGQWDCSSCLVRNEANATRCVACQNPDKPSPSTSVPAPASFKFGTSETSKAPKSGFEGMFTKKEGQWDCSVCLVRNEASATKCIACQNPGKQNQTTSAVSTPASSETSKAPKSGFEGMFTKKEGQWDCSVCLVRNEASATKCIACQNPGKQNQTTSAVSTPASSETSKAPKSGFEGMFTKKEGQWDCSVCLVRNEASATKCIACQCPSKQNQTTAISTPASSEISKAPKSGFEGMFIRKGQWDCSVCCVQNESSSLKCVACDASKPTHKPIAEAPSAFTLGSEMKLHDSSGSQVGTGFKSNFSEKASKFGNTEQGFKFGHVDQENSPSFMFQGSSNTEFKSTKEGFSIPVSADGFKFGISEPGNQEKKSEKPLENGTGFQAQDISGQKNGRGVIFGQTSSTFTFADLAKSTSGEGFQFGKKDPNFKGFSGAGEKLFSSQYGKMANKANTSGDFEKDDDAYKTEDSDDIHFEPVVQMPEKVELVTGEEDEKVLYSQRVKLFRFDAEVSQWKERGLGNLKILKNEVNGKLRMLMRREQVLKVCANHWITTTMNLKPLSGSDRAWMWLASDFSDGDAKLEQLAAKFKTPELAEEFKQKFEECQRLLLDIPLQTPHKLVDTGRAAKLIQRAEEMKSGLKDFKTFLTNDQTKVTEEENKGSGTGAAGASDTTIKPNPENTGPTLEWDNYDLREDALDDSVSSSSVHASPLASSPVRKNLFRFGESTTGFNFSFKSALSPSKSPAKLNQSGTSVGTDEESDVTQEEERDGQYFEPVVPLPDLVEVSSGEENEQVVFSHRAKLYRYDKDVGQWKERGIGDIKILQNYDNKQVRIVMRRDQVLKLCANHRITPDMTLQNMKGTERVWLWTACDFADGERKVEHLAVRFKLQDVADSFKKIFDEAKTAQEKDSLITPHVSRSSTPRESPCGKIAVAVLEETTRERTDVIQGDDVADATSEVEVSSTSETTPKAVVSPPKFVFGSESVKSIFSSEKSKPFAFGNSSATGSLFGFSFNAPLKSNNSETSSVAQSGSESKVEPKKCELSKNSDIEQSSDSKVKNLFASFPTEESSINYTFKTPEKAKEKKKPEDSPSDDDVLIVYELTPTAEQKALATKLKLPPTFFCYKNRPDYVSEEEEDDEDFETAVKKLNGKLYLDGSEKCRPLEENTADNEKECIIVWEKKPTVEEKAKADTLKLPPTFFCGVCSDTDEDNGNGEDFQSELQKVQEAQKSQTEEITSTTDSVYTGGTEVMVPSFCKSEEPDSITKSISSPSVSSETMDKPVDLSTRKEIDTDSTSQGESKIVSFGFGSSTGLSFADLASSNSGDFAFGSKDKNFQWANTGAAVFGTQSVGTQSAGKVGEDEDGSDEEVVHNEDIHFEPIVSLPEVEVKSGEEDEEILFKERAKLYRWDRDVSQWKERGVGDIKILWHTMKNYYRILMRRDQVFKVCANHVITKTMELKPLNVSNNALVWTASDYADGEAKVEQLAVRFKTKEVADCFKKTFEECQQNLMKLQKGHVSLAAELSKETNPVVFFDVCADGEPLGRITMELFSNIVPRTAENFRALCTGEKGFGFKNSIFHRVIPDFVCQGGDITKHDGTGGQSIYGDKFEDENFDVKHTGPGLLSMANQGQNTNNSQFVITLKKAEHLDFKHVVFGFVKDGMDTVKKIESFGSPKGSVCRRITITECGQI

Target: Thioredoxin-related transmembrane protein 2 (TMX2), endogenous (human (endogenous in HEK293)) (UniProt Q9Y320)
Assay: affinity purification with mass spectrometry; HEK293 cell lysates immunoprecipitated with anti-TMX2 antibody (endogenous TMX2), SDS-PAGE, silver staining, bands analysed by LC-MS

RanBP2, endogenous (from UniProt P49792 1-3224)
binding: binds
